From the supplement of paper PMC10331698
± gives the standard deviation of the averaged measurements. Most values lie at the level of the controls, where differences are scatter.

Key:
Assay in all cases: level (log10 ratio to DMSO vehicle control); higher = higher biomarker level / cell amount than vehicle control
[1] = compound: C=C(C)C(=O)OCC(F)(F)C(F)(F)C(F)(F)C(F)(F)C(F)(F)C(F)(F)C(F)(F)F; settings: in DMSO
Protocol: (§1)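 BioMAP Diversity Plus panel of 12 human primary cell co-culture systems (3C, 4H, LPS, SAg, BT, BF4T, BE3C, CASM3C, HDF3CGF, KF3CT, MyoF, Mphg). Compounds were added 1 h before stimulation and left for 24 h (MyoF 48 h; BT 72 h for soluble read-outs or 6 d for IgG). Biomarkers were read by ELISA, cytotoxicity by SRB, PBMC viability and proliferation by Alamar Blue. Each well value was divided by the mean of 8 DMSO control wells on the same plate and log10 transformed; duplicate blinded samples were tested at 4 concentrations.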

[2] = compound: C=CC(=O)OCC(F)(F)C(F)(F)C(F)(F)C(F)(F)C(F)(F)C(F)(F)C(F)(F)F [1H,1H-Perfluorooctyl acrylate]; settings: 2200 nM; in DMSO
Protocol: as §1

[3] = compound: C=CC(F)(F)C(F)(F)C(F)(F)C(F)(F)C(F)(F)C(F)(F)C(F)(F)C(F)(F)C=C [1,8-Divinylperfluorooctane]; settings: in DMSO
Protocol: as §1

[4] = compound: COC(=O)C(F)(F)C(F)(F)OC(F)(C(F)(F)F)C(F)(F)OC(F)=C(F)F [Methyl perfluoro(3-(1-ethenyloxypropan-2-yloxy)propanoate)]; settings: in DMSO
Protocol: as §1

[5] = compound: CO[Si](C)(CCC(F)(F)C(F)(F)C(F)(F)C(F)(F)C(F)(F)C(F)(F)F)OC [Dimethoxymethyl((perfluorohexyl)ethyl)silane]; settings: in DMSO
Protocol: as §1

[6] = compound: FC(F)(F)C(F)(F)C(F)(F)CC1CO1 [1H,1H-Heptafluorobutyl epoxide]; settings: 2200 nM; in DMSO
Protocol: as §1

Heptafluorobutyl iodide = compound: FC(F)(F)C(F)(F)C(F)(F)CI [Heptafluorobutyl iodide]; settings: 2200 nM; in DMSO
Protocol: as §1

[7] = compound: NC(=O)C(F)(F)C(F)(F)C(F)(F)C(F)F; settings: in DMSO
Protocol: as §1

Pentafluoropropionamide = compound: NC(=O)C(F)(F)C(F)(F)F [Pentafluoropropionamide]; settings: 2200 nM; in DMSO
Protocol: as §1

[8] = compound: NS(=O)(=O)C(F)(F)C(F)(F)C(F)(F)C(F)(F)C(F)(F)C(F)(F)C(F)(F)C(F)(F)F [Perfluorooctanesulfonamide]; settings: in DMSO
Protocol: as §1

[9] = compound: O=C(O)C(F)(F)C(F)(F)C(F)F [4H-Perfluorobutanoic acid]; settings: in DMSO
Protocol: as §1

[10] = compound: O=P(O)(O)CCC(F)(F)C(F)(F)C(F)(F)C(F)(F)C(F)(F)C(F)(F)F [2-(Perfluorohexyl)ethylphosphonic acid]; settings: 2200 nM; in DMSO
Protocol: as §1

[11] = compound: O=S(=O)(F)C(F)(F)C(F)(F)C(F)(F)C(F)(F)C(F)(F)C(F)(F)C(F)(F)C(F)(F)F [Perfluorooctanesulfonyl fluoride]; settings: 2200 nM; in DMSO
Protocol: as §1

[12] = compound: O=S(=O)(O)C(F)(F)C(F)(F)C(F)(F)C(F)(F)C(F)(F)C(F)(F)C(F)(F)C(F)(F)F [Perfluorooctanesulfonic acid]; settings: 2200 nM; in DMSO
Protocol: as §1

[13] = compound: O=S(=O)(O)C(F)(F)C(F)(F)C(F)(F)C(F)(F)C(F)(F)C(F)(F)C(F)(F)C(F)(F)F [Potassium perfluorooctanesulfonate]; settings: 2200 nM; in DMSO
Protocol: as §1

[14] = compound: O=S(=O)(OCC(F)(F)F)C(F)(F)C(F)(F)C(F)(F)C(F)(F)F [2,2,2-Trifluoroethyl perfluorobutanesulfonate]; settings: 2200 nM; in DMSO
Protocol: as §1

[15] = compound: OCC(F)(F)C(F)(F)C(F)(F)C(F)(F)C(F)(F)C(F)F [1H,1H,7H-Dodecafluoro-1-heptanol]; settings: 2200 nM; in DMSO
Protocol: as §1

[16] = compound: OCCCCC(F)(F)C(F)(F)C(F)(F)C(F)(F)F [4:4 Fluorotelomer alcohol]; settings: 2200 nM; in DMSO
Protocol: as §1

Row | Test System | level (log10) ([1]; 740 nM) | level (log10) ([1]; 2200 nM) | level (log10) [2] | level (log10) ([3]; 740 nM) | level (log10) ([3]; 2200 nM) | level (log10) ([4]; 740 nM) | level (log10) ([4]; 2200 nM) | level (log10) ([5]; 740 nM) | level (log10) ([5]; 2200 nM) | level (log10) [6] | level (log10) (Heptafluorobutyl iodide) | level (log10) ([7]; 2200 nM) | level (log10) ([7]; 6700 nM) | level (log10) ([7]; 20000 nM) | level (log10) ([7]; 60000 nM) | level (log10) (Pentafluoropropionamide) | level (log10) ([8]; 2200 nM) | level (log10) ([8]; 6700 nM) | level (log10) ([8]; 20000 nM) | level (log10) ([9]; 2200 nM) | level (log10) ([9]; 6700 nM) | level (log10) ([9]; 20000 nM) | level (log10) ([9]; 60000 nM) | level (log10) [10] | level (log10) [11] | level (log10) [12] | level (log10) [13] | level (log10) [14] | level (log10) [15] | level (log10) [16]
1 | MyoF:bFGF | -0.005 ± 0.024 | -0.0045 ± 0.012 | 0.0065 ± 0.021 | 0.002 ± 0.023 | -0.002 ± 0.0071 | 0.0065 ± 0.0092 | 0.0125 ± 0.0064 | -0.0015 ± 0.013 | -0.006 | -0.0015 ± 0.0078 | 0.0175 ± 0.026 | -0.0005 ± 0.0092 | -0.0125 ± 0.005 | -0.008 ± 0.017 | -0.0155 ± 0.005 | 0.011 ± 0.013 | 0.011 ± 0.0071 | 0.0115 ± 0.00071 | -0.0145 ± 0.0021 | 0.0125 ± 0.021 | -0.023 ± 0.016 | -0.007 ± 0.02 | 0.0045 ± 0.012 | -0.0205 ± 0.021 | 0.01 ± 0.0014 | 0.0065 ± 0.03 | -0.005 ± 0.0028 | -0.008 ± 0.0028 | -0.0065 ± 0.0035 | 0.0035 ± 0.0035
2 | BE3C:EGFR | -0.0055 ± 0.015 | -0.0165 ± 0.019 | 0.007 ± 0.014 | -0.007 ± 0.0014 | -0.023 ± 0.0071 | -0.001 ± 0.0042 | 0.004 ± 0.0071 | -0.009 ± 0.017 | -0.007 ± 0.0099 | -0.018 ± 0.0028 | -0.016 ± 0.014 | 0.0095 ± 0.035 | 0.0055 ± 0.019 | 0.0065 ± 0.032 | -0.008 ± 0.0099 | -0.024 ± 0.0057 | -0.007 ± 0.017 | -0.0005 ± 0.00071 | -0.044 ± 0.0014 | 0.013 ± 0.0014 | -0.0135 ± 0.011 | -0.0085 ± 0.0064 | 0.032 ± 0.025 | 0.0015 ± 0.035 | -0.006 ± 0.0057 | -0.003 ± 0.042 | 0.008 ± 0.018 | 0.013 ± 0.0099 | 0.005 ± 0.0057 | 0.0275 ± 0.049
3 | MyoF:CD106/VCAM-1 | 0.002 ± 0.021 | 0.0015 ± 0.005 | 0.007 ± 0.0057 | -0.01 ± 0.0014 | 0.0145 ± 0.00071 | -0.0085 ± 0.021 | -0.021 ± 0.017 | -0.0215 ± 0.016 | -0.01 ± 0.0071 | -0.0335 ± 0.005 | -0.022 ± 0.017 | -0.0085 ± 0.005 | -0.0085 ± 0.013 | -0.0205 ± 0.013 | -0.0235 ± 0.013 | -0.0145 ± 0.021 | -0.0005 ± 0.028 | -0.005 ± 0.023 | -0.293 ± 0.088 | -0.0035 ± 0.0064 | -0.0065 ± 0.011 | -0.017 ± 0.0071 | 0.0135 ± 0.015 | 0.0075 ± 0.016 | -0.0045 ± 0.0064 | 0.008 ± 0.025 | -0.001 ± 0.013 | 0.0045 ± 0.033 | -0.0035 ± 0.0064 | -0.002 ± 0.018
4 | KF3CT:PAI-I | 0.0015 ± 0.016 | -0.004 ± 0.017 | -0.0065 ± 0.005 | 0.0035 ± 0.016 | 0.001 ± 0.0042 | 0.0115 ± 0.028 | 0.012 ± 0.0071 | -0.0085 ± 0.021 | 0.005 ± 0.03 | -0.0015 ± 0.028 | 0.004 ± 0.016 | 0.014 ± 0.013 | -0.005 ± 0.0042 | -0.0085 ± 0.0064 | -0.007 ± 0.02 | 0.0015 ± 0.0021 | 0.027 ± 0.021 | 0.03 ± 0.027 | -0.108 ± 0.054 | 0.02 ± 0.0071 | 0.0015 ± 0.022 | 0.046 ± 0.02 | -0.0075 ± 0.073 | -0.0405 ± 0.021 | -0.0085 ± 0.021 | -0.003 ± 0.0042 | -0.01 ± 0.021 | -0.002 ± 0.0014 | 0.002 ± 0.014 | -0.0075 ± 0.012
5 | HDF3CGF:TIMP-1 | 0.012 ± 0.075 | 0.0225 ± 0.042 | -0.0125 ± 0.026 | 0.016 ± 0.05 | -0.005 ± 0.0014 | -0.006 ± 0.0028 | 0.008 ± 0.0042 | -0.015 ± 0.027 | -0.016 ± 0.014 | -0.0155 ± 0.05 | 0.0105 ± 0.025 | -0.015 ± 0.025 | -0.0005 ± 0.0064 | -0.0095 ± 0.043 | 0.0045 ± 0.039 | 0.017 ± 0.045 | 0.0105 ± 0.012 | 0.065 ± 0.068 | -0.138 ± 0.15 | -0.008 ± 0.031 | -0.015 ± 0.031 | -0.007 ± 0.0014 | 0.0115 ± 0.021 | 0.0345 ± 0.03 | -0.0125 ± 0.025 | -0.002 ± 0.03 | 0.0185 ± 0.025 | 0.002 ± 0.018 | -0.0025 ± 0.021 | 0.016 ± 0.058
6 | BE3C:CXCL9/MIG | 0.013 ± 0.0028 | 0.001 ± 0.016 | -0.002 ± 0.0042 | 0.002 ± 0.011 | -0.006 ± 0.014 | -0.0015 ± 0.0035 | 0.002 ± 0.0071 | -0.0065 ± 0.0064 | -0.003 ± 0.0099 | -0.0115 ± 0.012 | -0.009 ± 0.0042 | -0.0015 ± 0.037 | 0.012 ± 0.024 | 0.009 ± 0.0071 | 0.006 ± 0.0085 | 0.003 ± 0.0071 | -0.0005 ± 0.012 | -0.0015 ± 0.0021 | 0.013 ± 0.013 | -0.002 ± 0.0085 | -0.0015 ± 0.011 | 0.0085 ± 0.022 | 0.0135 ± 0.0092 | 0.0045 ± 0.016 | 0.0055 ± 0.0078 | 0.015 ± 0.03 | 0.013 ± 0.016 | 0.0165 ± 0.016 | 0.006 ± 0.0071 | 0.006 ± 0.016
7 | BE3C:MMP-1 | 0.0135 ± 0.00071 | 0.013 ± 0.016 | -0.007 ± 0.02 | 0.0165 ± 0.094 | 0.004 ± 0.045 | 0.0365 ± 0.005 | 0.0575 ± 0.025 | 0.011 ± 0.072 | -0.0055 ± 0.047 | 0.013 ± 0.011 | -0.0015 ± 0.013 | 0.0085 ± 0.088 | 0.003 ± 0.054 | -0.001 ± 0.0014 | 0.024 ± 0.0057 | 0.0345 ± 0.083 | 0.007 ± 0.044 | 0.084 ± 0.021 | 0.154 ± 0.014 | -0.007 ± 0.0014 | -0.033 ± 0.059 | -0.0175 ± 0.0035 | 0.008 ± 0.051 | 0.041 ± 0.065 | -0.0185 ± 0.0035 | 0.0515 ± 0.088 | 0.0595 ± 0.063 | -0.007 ± 0.0071 | 0.027 ± 0.057 | 0.001 ± 0.018
